Reference: PubChem BioAssay AID493027 (The Scripps Research Institute Molecular Screening Center, 2011)
Among all 2,000 compounds or so, about 45 (2%) were called active.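 How the source made its calls: active means inhibition above the screen-wide mean inhibition plus 3 SD (cut at about 44% in these data); inactive means the rest.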 This is one part of the list. Where a SMILES comes first, the peptide text is derived from it. The star is where a group is joined. Boc = CC(C)(C)OC(=O)*

By UniProt entry, the sequences of proteins in these tests, tags left out. Where a name states a change or a piece, a line headed by the entry shows the natural chain unless it says otherwise.
UniProt O60240: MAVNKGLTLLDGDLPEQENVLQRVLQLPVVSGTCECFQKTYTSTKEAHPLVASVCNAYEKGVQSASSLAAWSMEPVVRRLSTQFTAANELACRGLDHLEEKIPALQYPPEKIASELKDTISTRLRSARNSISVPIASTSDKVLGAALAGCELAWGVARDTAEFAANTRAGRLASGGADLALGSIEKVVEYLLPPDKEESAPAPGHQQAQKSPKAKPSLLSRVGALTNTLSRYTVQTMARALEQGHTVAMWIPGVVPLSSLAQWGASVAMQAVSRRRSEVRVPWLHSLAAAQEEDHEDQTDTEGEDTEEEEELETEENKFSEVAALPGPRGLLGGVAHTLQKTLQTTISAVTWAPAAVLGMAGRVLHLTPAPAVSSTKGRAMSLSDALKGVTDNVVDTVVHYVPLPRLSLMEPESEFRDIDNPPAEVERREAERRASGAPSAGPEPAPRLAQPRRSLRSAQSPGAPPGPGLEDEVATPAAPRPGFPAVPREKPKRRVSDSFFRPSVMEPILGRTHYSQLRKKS
UniProt Q8WTS1: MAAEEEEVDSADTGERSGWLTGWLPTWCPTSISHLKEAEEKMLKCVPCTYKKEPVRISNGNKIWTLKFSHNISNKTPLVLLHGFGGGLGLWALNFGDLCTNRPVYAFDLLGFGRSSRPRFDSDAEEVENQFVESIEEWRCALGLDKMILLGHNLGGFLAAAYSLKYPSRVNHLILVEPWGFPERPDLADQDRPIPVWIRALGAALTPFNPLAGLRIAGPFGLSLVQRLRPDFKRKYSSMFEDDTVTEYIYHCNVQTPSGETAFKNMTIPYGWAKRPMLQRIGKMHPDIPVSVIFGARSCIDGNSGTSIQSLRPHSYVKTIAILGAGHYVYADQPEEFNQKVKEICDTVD

Molecular target: Perilipin-1 (Homo sapiens) + 1-acylglycerol-3-phosphate O-acyltransferase ABHD5 (Homo sapiens) (UniProt O60240+Q8WTS1)
Experiment: blockers of ABHD5 binding to perilipin-1 – cell lysate, split luciferase complementation, luminescence, NIH validation set, pilot screen (AID 493027);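 further: 0% = DMSO wells with the 100% control not disclosed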
Settings: split G. princeps luciferase complementation, 4 h; at 7.9 µM, hits give high values

inhibition, inactive:
CC[N+]1(C)CC2CCC(C)(C1)C2(C)C (stereo unspecified) -1.14%, CC(C)(C)OC(=O)N1CCCC1C(=O)NC(Cc1ccccc1)C(=O)O (stereo not drawn) (Boc-Pro-Phe-OH; configuration not given here) -7.73%, COCCn1c(SCCOc2ccccc2)nc2ccccc2c1=O -7.89%, COC(=O)c1cc(OC)c(OC)cc1NC(=O)Nc1ccc(OC)cc1OC 5.92%, COc1ccc(CN2CCC(=O)NC2=O)cc1 -1.55%, COc1cc(C(=O)OCCn2c(=O)c3c(ncn3CCN(C)C)n(C)c2=O)cc(OC)c1OC -2.64%, COc1ccc(-c2c[n+](CC(=O)OC3CC(C)CCC3C(C)C)c3n2CCC3)cc1 (stereo unspecified) 12.8%, O=C(COc1ccccc1)N1CCN(c2ccccc2)CC1 -2.07%, CN(C)CCC=C1c2ccccc2CCc2ccccc21 -12%, Cc1ccnc2c1NC(=O)c1cccnc1N2C1CC1 -8.35%, C#C[C@]1(O)CC[C@H]2[C@@H]3CCc4cc(OC5CCCC5)ccc4[C@H]3CC[C@@]21C -7.44%, Cn1c(=O)c2[nH]cnc2n(C)c1=O 3.05%, CC(C)COCC1CC2(CC(C)(c3csc(N)n3)OC2=O)C(=O)O1 (stereo unspecified) -11.4%, COc1c(C)cc(C(=O)C2CCCN(Cc3ccc(Oc4ncccn4)cc3)C2)cc1C (stereo unspecified) -2.41%, COc1ccc(CNCCC(c2ccc(F)cc2)c2ccc(OC(C)C)cc2)cc1OC (stereo unspecified) -6.56%, CCOC(=O)C1C2C=CC3(CN(c4ccc(Cl)c(F)c4)C(=O)C13)O2 (stereo unspecified) -9.58%, CCc1ccc2oc(=O)cc(CN3CCC(C)CC3)c2c1 -3.08%, CCOC(=O)C1=C(N)Oc2c(oc(CO)cc2=O)C1c1ccc(F)c(F)c1 (stereo unspecified) -2.04%, C[C@]12CC[C@H]3C(=CCc4cc(O)ccc43)[C@@H]1CCC2=O 5.17%, Cc1ncc([N+](=O)[O-])n1CC(O)CCl (stereo unspecified) 1.63%, CN1C(C(=O)Nc2ccccn2)=C(O)c2sccc2S1(=O)=O 2.28%, COc1ccc(C2C(=O)c3ccccc3C2=O)cc1 -2.92%, CCOC(=O)c1c(C)oc2cc(Br)c(OC(C)C(=O)OCC)cc12 (stereo unspecified) -5%, Cc1cccc(C)c1NC(=O)C1CCCCN1C (stereo unspecified) -13.7%, Nc1ccc(S(N)(=O)=O)cc1N 1.88%, CC(C)OC(=O)CC1C(=O)NCCN1C(=S)NC(=O)c1ccccc1Cl (stereo unspecified) 1.72%
